Measured values: patent publication US7973032B2, “Staurosporine derivatives for use in alveolar rhabdomyosarcoma” (University of Zurich, priority 2005, dated 2011)

Tested on: PAX3/NCOA1

CO[C@@H]1[C@H](N(C)C(=O)c2ccccc2)C[C@H]2O[C@]1(C)n1c3ccccc3c3c4c(c5c6ccccc6n2c5c31)C(=O)NC4 [PKC412, N-[(9S,10R,11R,13R)-2,3,10,11,12,13-hexahydro-10-methoxy-9-methyl-1-oxo-9,13-epoxy-1H,9H-diindolo[1,2,3-gh:3′,2′,1′-Im]pyrrolo[3,4-j][1,7]benzodiazonin-11-yl]-N-methylbenzamide]
inhibition with PAX3/NCOA1: inhibition was also observed
